Measured values reported in patent US4405354A, “Elimination of odors from waste material” (priority 1980, dated 1983).

How the values were obtained:
[1] = Neutralization of ammonium hydroxide added dropwise to 5 grams of active chemical, ammonia odor checked by smell; settings: 5 grams of the active chemical; no odor of ammonia detected
[2] = Pelleted cat litter used by an adult cat until the odor of ammonia could be detected; settings: by weight in animal litter

Row | Compound | NH4 OH(grams neutralized) [1] [grams] | concentration exerting an effective control of ammonia odor [2] [%]
1 | CC(=O)O [HOAc, acetic acid] | 4.2 | –
2 | O=CO [HCOOH, formic acid] | 4.5 | –
3 | O=C1O[C@H]([C@@H](O)CO)C(O)=C1O [Ascorbic Acid] | 2.1 | –
4 | O=C(O)CN(CCN(CC(=O)O)CC(=O)O)CC(=O)O [Ethylene diaminetetraacetic Acid] | 2.8 | –
5 | O=S(=O)(O)O [H2 SO4, sulfuric acid] | 4.0 | –
6 | O=P(O)(O)O [H3 PO4, orthophosphoric acid] | 4.5 | –
7 | O=P([O-])(O)O.[K+] [KH2 PO4] | 4.4 | –
8 | O=S(=O)([O-])O.[Na+] [sodium bisulfate] | 3.75 | ≥ 0.5
9 | O=P([O-])([O-])O.[Ca+2] [CaHPO4] | 1.9 | –
10 | O=P([O-])(O)O.[Na+] [NaH2 PO4] | 3.5 | –
11 | CCC(=O)O [Propionic Acid] | 2.7 | –
12 | O=C(O)CC(O)(CC(=O)O)C(=O)O [Citric Acid] | 3.5 | –
13 | CC(O)C(=O)O (centres unmarked) [Lactic Acid] | 3.0 | –
